Laboratory results: patent publication EP0146113A2, “Active agent and therapeutical composition for the treatment of deincephalon failures of nervous deseases and skin diseases” (Aderhold, Dieter, priority 1983, dated 1985)
At least one peptide structure holds a part that was inferred or is arguable (an end, a ring closure or a residue). Where a SMILES comes first, the peptide text is derived from it.

System: Patienten, die an hormonal bedingtem Bluthochdruck leiden
Assay: Administration to patients with hormonally caused high blood pressure
Assay type: in vivo
Conditions: treatment of raised melanotropin level / hormonally caused high blood pressure

CC(C)C[C@H](NC(=O)[C@@H]1CCCN1)C(=O)NCC(N)=O [MIF, Prolyl-Leucylglycinamid] (H-Pro-Leu-Gly-NH2)
Ergebnisse: Besonders gute Ergebnisse
